The text below walks through data of article PMC9767466.

These are yes or no findings as the source states them, for the method shown. In cells and extracts the contact can be indirect. Here binding means that the protein was enriched with, or labelled near, the bait; the list need not be complete. Sequences can lack the tags named with a protein.

The test has as its target T1, N-terminal FLAG-tagged EROS in RAW 264.7 macrophages (UniProt Q3TYS2).
T1 sequence: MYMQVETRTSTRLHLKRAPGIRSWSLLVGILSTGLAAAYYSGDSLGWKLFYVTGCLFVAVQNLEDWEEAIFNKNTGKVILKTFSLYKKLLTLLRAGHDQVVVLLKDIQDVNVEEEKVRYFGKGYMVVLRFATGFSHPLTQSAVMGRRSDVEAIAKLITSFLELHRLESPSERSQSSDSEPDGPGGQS
In words: affinity purification with mass spectrometry; FLAG affinity purification from RAW 264.7 macrophages overexpressing FLAG-tagged EROS against untagged control cells, four biological replicates; elution with 3xFLAG peptide; LC-MS/MS; SAINTexpress, SP > 0.9 for high-confidence interactors.

B1: ribophorin-1 (RPN1), endogenous in RAW 264.7 macrophages (protein, UniProt Q91YQ5 26-608)
chain: SSEAPPLVNEDVKRTVDLSSHLAKVTAEVVLVHPGGGSTSRASSFVLALEPELESRLAHLGVQIKGEDEEDNNLEVRETKIKGKSGRFFTVKLPVALDPGSKISVVVETVYTHVLHPYPTQITQSEKQFVVFEGNHYFYSPYPTKTQTMRVKLASRNVESYTKLGNPSRSEDVLDYGPFKDIPAYSQDTFKVHYENNSPFLTITSMTRVIEVSHWGNIAVEENVDLKHTGAVLKGPFSRYDYQRQPDSGISSIRSFKTILPAAAQDVYYRDEIGNVSTSHLLILDDSVEMEIRPRFPLFGGWKTHYIVGYNLPSYEYLYNLGDQYALKMRFVDHVFDEQVIDSLTVKIILPEGAKNIQVDSPYDISRAPDELHYTYLDTFGRPVIVAYKKNLVEQHIQDIVVHYTFNKVLMLQEPLLVVAAFYILFFTVIIYVRLDFSITKDPAAEARMKVACITEQVLTLVNKRLGLYRHFDETVNRYKQSRDISTLNSGKKSLETEHKAVTSEIAVLQSRLKTEGSDLCDRVSEMQKLDAQVKELVLKSAVEAERLVAGKLKKDTYLENEKLSSGKRQELVTKIDHILDAL
Consider B1, for which the binding result was “binds”.
